Data taken from publication PMC12809078.
These are yes or no findings as the source states them, for the method shown. Binding seen in cells or lysates may run through a third protein. Binding calls can cover weak binding; strength is not graded here.

Amino acid sequences for entries named in this document (tags omitted). A change or cut given only in a name is not applied to a line headed by its entry.
UniProt Q9H9B1: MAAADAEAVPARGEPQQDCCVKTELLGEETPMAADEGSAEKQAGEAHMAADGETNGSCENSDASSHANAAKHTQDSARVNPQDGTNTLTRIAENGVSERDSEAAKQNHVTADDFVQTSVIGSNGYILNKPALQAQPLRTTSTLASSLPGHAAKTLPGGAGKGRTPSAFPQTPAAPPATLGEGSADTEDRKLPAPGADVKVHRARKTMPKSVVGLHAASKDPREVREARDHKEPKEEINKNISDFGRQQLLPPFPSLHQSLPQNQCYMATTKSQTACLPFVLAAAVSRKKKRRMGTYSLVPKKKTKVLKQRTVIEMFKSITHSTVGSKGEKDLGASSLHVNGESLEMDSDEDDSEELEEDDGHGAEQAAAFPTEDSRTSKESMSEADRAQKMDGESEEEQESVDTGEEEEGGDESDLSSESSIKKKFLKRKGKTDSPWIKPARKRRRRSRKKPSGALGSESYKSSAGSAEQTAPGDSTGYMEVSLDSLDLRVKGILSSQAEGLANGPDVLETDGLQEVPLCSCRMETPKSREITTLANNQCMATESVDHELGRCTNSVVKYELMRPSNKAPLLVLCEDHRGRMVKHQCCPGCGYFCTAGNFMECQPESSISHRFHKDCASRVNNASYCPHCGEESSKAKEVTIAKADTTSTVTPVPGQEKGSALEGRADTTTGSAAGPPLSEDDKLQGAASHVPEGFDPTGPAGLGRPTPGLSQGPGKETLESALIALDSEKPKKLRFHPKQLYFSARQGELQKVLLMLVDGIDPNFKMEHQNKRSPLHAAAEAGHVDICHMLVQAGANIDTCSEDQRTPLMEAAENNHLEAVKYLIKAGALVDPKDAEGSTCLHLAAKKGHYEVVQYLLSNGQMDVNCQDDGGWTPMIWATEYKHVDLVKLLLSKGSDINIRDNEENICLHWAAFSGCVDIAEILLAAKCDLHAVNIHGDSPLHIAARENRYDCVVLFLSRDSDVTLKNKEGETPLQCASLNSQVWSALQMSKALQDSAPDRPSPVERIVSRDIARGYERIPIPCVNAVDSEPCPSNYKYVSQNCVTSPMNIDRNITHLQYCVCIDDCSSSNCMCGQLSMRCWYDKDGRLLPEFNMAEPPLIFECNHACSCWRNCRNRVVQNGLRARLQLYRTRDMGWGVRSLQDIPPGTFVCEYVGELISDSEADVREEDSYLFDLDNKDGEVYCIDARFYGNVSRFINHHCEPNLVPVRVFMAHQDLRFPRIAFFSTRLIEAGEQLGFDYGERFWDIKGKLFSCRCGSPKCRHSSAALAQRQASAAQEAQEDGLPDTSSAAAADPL

Molecular target: CtBP2-(1-445)-FLAG (human) (UniProt P56545)
Experiment: co-IP; HEK293T co-transfected with CtBP2-FLAG and Myc-tagged G9a or GLP; anti-FLAG resin, FLAG peptide elution, Western blot

“GLP-(1-1298)^ΔPre-SET-Myc (from UniProt Q9H9B1)” was tested, and the binding was “binds”.
